Data from PMC6168688.
No constants are given. Whether binding was seen depends on the method and setting. Some results given as binding are weak or reduced against the parent protein; the word gives no strength. Sequences can lack the tags named with a protein.

What was measured:
[1] = molecular target: T1, AtNOC2, full length, yeast two-hybrid matrix fusion (pPC86/pPC97) (A. thaliana) (UniProt Q9ZPV5); experiment: two-hybrid; A. thaliana NOC proteins tested two by two, in both directions, pPC86- and pPC97-based vectors; growth on SD-HTL selective media (10-3 dilution)
T1 sequence: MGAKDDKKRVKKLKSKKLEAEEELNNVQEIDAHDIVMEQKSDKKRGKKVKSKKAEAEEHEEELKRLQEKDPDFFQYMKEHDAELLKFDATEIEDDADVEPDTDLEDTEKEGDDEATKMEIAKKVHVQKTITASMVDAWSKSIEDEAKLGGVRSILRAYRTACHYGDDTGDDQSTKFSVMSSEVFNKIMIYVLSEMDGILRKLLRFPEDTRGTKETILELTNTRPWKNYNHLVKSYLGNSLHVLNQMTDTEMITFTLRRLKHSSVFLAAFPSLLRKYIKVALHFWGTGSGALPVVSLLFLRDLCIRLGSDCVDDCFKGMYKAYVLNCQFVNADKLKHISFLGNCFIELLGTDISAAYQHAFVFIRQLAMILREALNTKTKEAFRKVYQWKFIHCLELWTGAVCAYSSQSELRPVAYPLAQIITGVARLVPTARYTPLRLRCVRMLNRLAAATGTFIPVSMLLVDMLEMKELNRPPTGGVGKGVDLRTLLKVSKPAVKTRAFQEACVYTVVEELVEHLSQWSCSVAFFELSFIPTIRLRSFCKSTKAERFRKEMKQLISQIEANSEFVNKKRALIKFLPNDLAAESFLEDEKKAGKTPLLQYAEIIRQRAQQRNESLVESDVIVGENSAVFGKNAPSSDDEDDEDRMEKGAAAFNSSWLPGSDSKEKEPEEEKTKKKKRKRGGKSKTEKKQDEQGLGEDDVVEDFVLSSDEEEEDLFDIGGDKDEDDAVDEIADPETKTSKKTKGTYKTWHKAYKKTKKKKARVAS

[2] = molecular target: T2, REBELOTE (RBL), full length, yeast two-hybrid matrix fusion (pPC86/pPC97) (A. thaliana) (UniProt Q0WVH0); experiment: as above
T2 sequence: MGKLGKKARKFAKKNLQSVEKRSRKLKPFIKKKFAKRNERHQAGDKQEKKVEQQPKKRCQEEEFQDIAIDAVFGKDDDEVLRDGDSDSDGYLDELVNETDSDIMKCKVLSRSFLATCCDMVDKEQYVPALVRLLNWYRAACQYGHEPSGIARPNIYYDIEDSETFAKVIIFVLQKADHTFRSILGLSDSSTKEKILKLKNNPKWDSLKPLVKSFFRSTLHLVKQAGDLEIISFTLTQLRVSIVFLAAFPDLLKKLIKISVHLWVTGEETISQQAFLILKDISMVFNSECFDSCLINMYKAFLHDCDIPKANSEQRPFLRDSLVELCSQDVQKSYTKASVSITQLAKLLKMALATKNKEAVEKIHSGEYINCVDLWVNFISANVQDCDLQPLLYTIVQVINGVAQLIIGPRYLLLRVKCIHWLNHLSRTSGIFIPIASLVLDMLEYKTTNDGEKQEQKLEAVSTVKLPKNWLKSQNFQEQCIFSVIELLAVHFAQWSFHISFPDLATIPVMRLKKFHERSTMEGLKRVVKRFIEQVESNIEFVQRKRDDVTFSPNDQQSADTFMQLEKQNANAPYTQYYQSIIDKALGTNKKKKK

[3] = molecular target: T2, REBELOTE (RBL), full length, yeast two-hybrid matrix fusion (pPC86/pPC97) (A. thaliana); experiment: two-hybrid; A. thaliana NOC proteins tested two by two, in both directions, pPC86- and pPC97-based vectors; growth on SD-AHTL high selective media (10-3 dilution)

Measured: binding

B1: AtNOC3, full length, yeast two-hybrid matrix fusion (pPC86/pPC97) (protein, UniProt F4IDJ0 1-830)
chain: MGKNRRKQKVIPPPLLPPDVAEEDIEFSDEDLKYVKENTDYAQFVSQIDTAAINKQCGGRVMTVEDKYEEERSKRKTLQEEKGNGEILVDPVDVLPVKTLDGKLHYRTESKKSKLAEAETDEAEKDVLEDEHVLNKSQRREKAKKSKREAKKHEKDLPDEILQEEEETPQAAVLAEVKEELSAEESFENKKNKIAELGMLLLSDPEANIKTLKDMLDICKDQNTKIVKLALLSLLAVFKDIIPGYRIRLPTEKELEMKISKEVKKTRFYESTLLKAYKSYLQKLIIFEKQSVYNQIANRCLCTLLEAVPHFNYRDNLLIAVVRNISSPDEVVRRLCCSTIRYLFSNEGKHGGELTVQAVRLIADHVKAHNCQLHPNAIEVFMSIRFDEDIGKPNKEDEHNKKYKKNNKRKTQEEQNQVQENERKKSKKDMMSKIRDEVSADHRGVTYEPDAKERRKMQTETLSAVFETYFRILRNTMYTIGERTEEIPTSNPGAFGSHPLLAPCLDGLAKFTQQLDLDYMGDLMNYLKKLASSSSSVSNNTKQKNSKLLTVSERLRCCLVAFKVMRSNLNALNVDLQDFFVQLYNLILEYRPGRDSGVILAESLKIMLCDDRHQDMQKAAAFVKRLATFALCFGCAESMSALVTLKTLLQKNVKCRNLLENDAGGGSVSGSIAKYQPYATDPNLSGALATVLWELSLLSKHYHPAISTMATTVSNMNTSQSQTFLSAVTPQQAFADFSLVKESFEPKNESRKLNNKRKRESLPEEAKNVPEIDMVKLSKKLKENFTILRDIKEDERVRMELLQSEEKKPLKKQNNVVKKKLKNPKSKKQI
binds: [1] | [2] | [3]
